Assay results published in PMC5042403.
These are yes or no findings as the source states them, for the method shown. Binding seen in cells or lysates may run through a third protein. Some results given as binding are weak or reduced against the parent protein; the word gives no strength.

Sequences of proteins named here, by UniProt entry; tags and fusion partners are left off.
UniProt Q96533: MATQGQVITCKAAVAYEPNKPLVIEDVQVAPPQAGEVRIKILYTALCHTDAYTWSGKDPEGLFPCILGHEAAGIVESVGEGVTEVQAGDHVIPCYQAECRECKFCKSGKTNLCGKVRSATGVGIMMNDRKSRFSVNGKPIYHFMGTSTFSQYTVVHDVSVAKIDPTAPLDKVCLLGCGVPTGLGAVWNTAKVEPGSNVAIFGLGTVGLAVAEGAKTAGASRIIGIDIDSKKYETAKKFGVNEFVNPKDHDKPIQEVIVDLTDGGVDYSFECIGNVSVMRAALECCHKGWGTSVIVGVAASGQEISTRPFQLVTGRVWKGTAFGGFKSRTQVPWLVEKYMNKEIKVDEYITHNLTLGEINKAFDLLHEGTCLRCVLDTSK

Tests used:
[1] = biological target: GSNOR-YN (N-terminal half of YFP fused to S-nitrosoglutathione reductase) (Arabidopsis thaliana) (UniProt Q96533); assay: split reporter; BiFC; split-YFP fusions co-expressed transiently in 3-week-old tobacco leaves by Agrobacterium infiltration; YFP imaged 2 days after infiltration
[2] = biological target: GSNOR-YC (C-terminal half of YFP fused to S-nitrosoglutathione reductase) (Arabidopsis thaliana) (UniProt Q96533); assay: as above

binding [1]	binding [2]	Substance
binds		CaM4-YC (C-terminal half of YFP fused to AtCaM4) (from UniProt P0DH96 1-149)
	binds	CaM4-YN (N-terminal half of YFP fused to AtCaM4) (from UniProt P0DH96 1-149)
